Our source for the inhibition zone (IZ) values is ChEMBL document CHEMBL1152842, “Synthesis, Raman, FT-IR, NMR spectroscopic data and antimicrobial activity of mixed aza-oxo-thia macrocyclic compounds” (2009).

For the experiment, the system named is Candida albicans. Briefly: Antifungal activity against Candida albicans ATCC 10231 at 1 ug after 72 hrs by disk diffusion method. In kind it is functional. For orientation: In agar diffusion tests the substance spreads into inoculated agar from a disc or well.

On to NYSTATIN, for which the inhibition zone (IZ) was determined as 18 mm.
